Measured data: PubChem BioAssay AID1259254 (NCATS, 2017)
The deposit covers about 59,000 reagents; shown is a random part of them. In the full data, about 1,550 (2.6%) got an active call. 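G2 share is only a proxy for re-replication; each gene was hit by three separate siRNAs, and active genes were retested.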 Reagents against one gene are numbered here. Not all columns of the deposit are shown. The record does not give: the amount of reagent.

Test: 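Genome-wide screen for genes that prevent DNA re-replication in cancer cells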 (primary screen)
Cell system: human HCT116 colorectal cancer cells
Reagent: single siRNA against human genes
Time to read-out: 3 days
Detection: 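Imaged Hoechst DNA stain sorts each cell into a cycle phase by DNA amount; per plate, G2 fraction set to 0% for non-targeting and 100% for GMNN siRNA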
Reading the numbers: G2 robust z-score: higher = more G2 cells, more excess DNA replication
Hit rule: 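An siRNA counts as active if its G2 robust z-score lies at least 5 MADs above the screen median; here such calls match roughly 38% of GMNN control or more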

G2 robust z-score, by target and reagent
TCEAL4: #1 4.47 inactive; #2 2.05 inactive; #3 1.23 inactive
BLNK: #1 1.45 inactive; #2 -0.621 inactive; #3 0.87 inactive
RPL23AP82: #1 1.44 inactive; #2 3.84 inactive; #3 -0.0547 inactive
BCAP29: #1 -0.0457 inactive; #2 1.47 inactive; #3 -0.995 inactive
HSPA4: #1 2.19 inactive; #2 0.331 inactive; #3 -0.0682 inactive
CCDC159: #1 -0.767 inactive; #2 -0.0365 inactive; #3 -0.612 inactive
LINC01750: #1 -0.548 inactive; #2 0.758 inactive; #3 -0.325 inactive
LINC00944: #1 -0.0149 inactive; #2 0.0741 inactive; #3 1.07 inactive
PEX1: #1 -1.14 inactive; #2 2.55 inactive; #3 -0.985 inactive

A few values from the entries so far.
Value of RPL23AP82 #3 in “G2 robust z-score”: -0.0547
Entry for BLNK #2 under “G2 robust z-score”: -0.621
For “G2 robust z-score”, BCAP29 #3 reads -0.995
Under “G2 robust z-score”, BCAP29 #1 reads -0.0457
BLNK #1, outcome → inactive
For “outcome”, HSPA4 #1 has inactive

The results go on.
G2 robust z-score, by target and reagent
APOH: #1 0.212 inactive; #2 1.48 inactive; #3 2.46 inactive
LRRC34: #1 1.23 inactive; #2 0.563 inactive; #3 -0.33 inactive
RPL23AP2: #1 0.783 inactive; #2 0.825 inactive; #3 0.18 inactive
PERP: #1 -0.00487 inactive; #2 0.758 inactive; #3 -0.289 inactive
SLC38A4: #1 -1.31 inactive; #2 -0.311 inactive; #3 -0.416 inactive
TTC19: #1 1.37 inactive; #2 -0.214 inactive; #3 -0.488 inactive
OR5H6: #1 -0.476 inactive; #2 6.44 active; #3 -1.09 inactive
RASL11A: #1 -0.817 inactive; #2 -0.687 inactive; #3 -0.173 inactive
PSMC5: #1 0.204 inactive; #2 0.569 inactive; #3 13.2 active
BTNL3: #1 -0.848 inactive; #2 -1.34 inactive; #3 -0.0509 inactive
ALG2: #1 5.8 active; #2 -0.68 inactive; #3 1.26 inactive
LCMT1: #1 1.4 inactive; #2 -1.17 inactive; #3 -0.26 inactive
ADAMTS4: #1 0.476 inactive; #2 -0.768 inactive; #3 -0.573 inactive
SNX12: #1 0.795 inactive; #2 -0.967 inactive; #3 1.73 inactive
